Measurements taken from article doi:10.1101/2020.02.26.966143.
Read-outs that look alike come from different tables or passages of the source. These are yes or no findings as the source states them, for the method shown. Binding seen in cells or lysates may run through a third protein. Some results given as binding are weak or reduced against the parent protein; the word gives no strength.

Key:
[1] = target: T1, Vitamin D receptor (mouse (endogenous in RAW264.7)) (UniProt P48281); test: co-IP
T1 sequence: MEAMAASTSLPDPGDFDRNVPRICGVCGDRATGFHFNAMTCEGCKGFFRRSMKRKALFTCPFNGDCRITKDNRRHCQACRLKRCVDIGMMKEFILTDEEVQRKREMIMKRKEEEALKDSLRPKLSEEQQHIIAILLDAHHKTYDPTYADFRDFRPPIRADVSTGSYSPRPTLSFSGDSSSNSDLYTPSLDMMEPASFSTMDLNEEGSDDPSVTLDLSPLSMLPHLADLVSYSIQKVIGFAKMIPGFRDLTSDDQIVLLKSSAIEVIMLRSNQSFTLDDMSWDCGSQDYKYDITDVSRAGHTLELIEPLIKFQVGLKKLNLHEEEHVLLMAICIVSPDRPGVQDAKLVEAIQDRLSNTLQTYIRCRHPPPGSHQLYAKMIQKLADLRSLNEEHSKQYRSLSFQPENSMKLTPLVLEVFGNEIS

[2] = target: T1, Vitamin D receptor (mouse (endogenous in RAW264.7)); test: co-IP; remark: listed apart in the source

- binding [1]: binds
- binding [2]: binds
Substance: NF-κB p65 (from UniProt Q04207-1 1-549)
